The other results are listed elsewhere or left out.
target: T1, OsSMF1 (Oryza sativa, UniProt Q6ZLB0 1-436); experiment: protein-binding microarray (RPBM); PBS, 2% BSA, 51.3 ng/ul salmon testes DNA, 50 uM zinc acetate, 200 nM TF, 25 C, 1 h; high values mean tight binding; conditions: protein: recombinant; tags: N-terminal polyhistidine and DsRed monomer fusion (pET32a); chain copies: 2; label: CyDye5-dUTP incorporated in the synthesized complementary strand; 3' TTTTT single-stranded linker to array surface; dsDNA, one strand shown
T1 sequence: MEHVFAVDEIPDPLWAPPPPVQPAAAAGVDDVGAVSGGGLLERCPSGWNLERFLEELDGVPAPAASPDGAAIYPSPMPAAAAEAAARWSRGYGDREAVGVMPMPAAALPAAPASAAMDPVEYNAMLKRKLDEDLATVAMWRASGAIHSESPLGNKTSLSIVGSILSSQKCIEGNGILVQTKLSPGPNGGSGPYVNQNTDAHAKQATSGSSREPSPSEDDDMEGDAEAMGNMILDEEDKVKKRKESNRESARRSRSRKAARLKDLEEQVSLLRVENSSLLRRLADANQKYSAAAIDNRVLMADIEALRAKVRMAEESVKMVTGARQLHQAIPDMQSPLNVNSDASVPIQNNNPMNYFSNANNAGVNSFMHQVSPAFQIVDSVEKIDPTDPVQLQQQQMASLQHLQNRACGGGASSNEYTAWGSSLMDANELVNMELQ
In short: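 In PBS with 2% BSA, salmon testes DNA and 50 µM zinc acetate, 200 nM protein was incubated on a custom Agilent array at 25 °C for 1 h and then washed off. The array had been made double-stranded by primer extension with Cy5-dUTP and blocked with 2% BSA. The proteins were transcription factors fused N-terminally to polyhistidine and DsRed, expressed in E. coli BL21-CodonPlus and purified on Ni–NTA. The binding signal is per-feature fluorescence intensity (arbitrary units) from an Axon 4000B scanner.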

Row | Sequence | binding signal
1 | TTCTTCCTCTCCAAGAAGACAAGTCACCCTTCCCCACGCCCGGAGTCACCTAGTGCAG | 24700 fluorescence intensity (a.u.)
2 | ATCAGCTGACCATTGTGGCTACCGTCTTCCCGCAGCTCATCGGAGTCACCTAGTGCAG | 3610 fluorescence intensity (a.u.)
3 | CTCGAGCTTGACTCTGGCGGCAGTGGCGGGCGGCGTGGCCCGGAGTCACCTAGTGCAG | 3220 fluorescence intensity (a.u.)
4 | CCACGTGTCAGCATTGCCACATCAGCTTCCTCTCTCTTTTCGGAGTCACCTAGTGCAG | 24100 fluorescence intensity (a.u.)
5 | TTGCTGCCACGTCGGGCCACCGGCCTATTGAGTCACCGAACGGAGTCACCTAGTGCAG | 14900 fluorescence intensity (a.u.)
6 | GGGGAGGAGGACGAGTAACAGACGTGGTGGCCGCCGAGGCCGGAGTCACCTAGTGCAG | 3490 fluorescence intensity (a.u.)
7 | GCTGCTTCCCTTCCTCGCCTACGCCGCCGTCCATCTCGCCCGGAGTCACCTAGTGCAG | 3680 fluorescence intensity (a.u.)
8 | ATAATTTGAGCAGGTCAATCTAAACACGCTGTCAAGGACTCGGAGTCACCTAGTGCAG | 3530 fluorescence intensity (a.u.)
9 | GTAGAATTATAAAATATATTGTGTACACAATAGGTTTATGCGGAGTCACCTAGTGCAG | 3330 fluorescence intensity (a.u.)
10 | GGCCCCTCTCCGTCGGCGGCGTCAGCAGTGGGCTGCAGCACGGAGTCACCTAGTGCAG | 20300 fluorescence intensity (a.u.)
11 | GTGGTGTGAAGGAATAAGTCCATTTTGCCTCCCTCATCTCCGGAGTCACCTAGTGCAG | 11200 fluorescence intensity (a.u.)
12 | TAGCCACATTATTTTGCTGAATGATACTACAACTGGCACCCGGAGTCACCTAGTGCAG | 5070 fluorescence intensity (a.u.)
13 | CTTCAAGAGGAAGTATATTATGCTTGTCATGCTCGTTCAACGGAGTCACCTAGTGCAG | 3140 fluorescence intensity (a.u.)
14 | CCCGTCGTTCGGATCCGCCAACACCGCACCGCCGCAATCGCGGAGTCACCTAGTGCAG | 22600 fluorescence intensity (a.u.)
15 | ACCCGGGGCGAGAGCAGAAGAAACGGATCTCTGTCTTTCTCGGAGTCACCTAGTGCAG | 32800 fluorescence intensity (a.u.)
16 | TCAATTTGCATTCCGTGTCATGTAATTGCCTGATGTGAGTCGGAGTCACCTAGTGCAG | 5730 fluorescence intensity (a.u.)
17 | CAGCGTCACGTGGCACCCGCACCGCCCGAAAACACCGTTGCGGAGTCACCTAGTGCAG | 5530 fluorescence intensity (a.u.)
18 | CTAGCAGAAATGGTGATCGGGAGCAAATGTGGGTTGATGACGGAGTCACCTAGTGCAG | 3680 fluorescence intensity (a.u.)
19 | AACAGAGGCTAATAGCTCATCCCTGCATCATCATCATCATCGGAGTCACCTAGTGCAG | 4420 fluorescence intensity (a.u.)
20 | GACTAGATTAATAGTAAACCACCTTAATAGTATGTCTACACGGAGTCACCTAGTGCAG | 4450 fluorescence intensity (a.u.)
21 | TTGTAAGCTCAGCCTAGATAGAGTGAAGATATTTTATTGGCGGAGTCACCTAGTGCAG | 49700 fluorescence intensity (a.u.)

2 records picked at random from the list so far, as already listed:
Row | Sequence | binding signal
5 | TTGCTGCCACGTCGGGCCACCGGCCTATTGAGTCACCGAACGGAGTCACCTAGTGCAG | 14900 fluorescence intensity (a.u.)
1 | TTCTTCCTCTCCAAGAAGACAAGTCACCCTTCCCCACGCCCGGAGTCACCTAGTGCAG | 24700 fluorescence intensity (a.u.)

Next results.

Row | Sequence | binding signal
22 | TGAGTTCTACTAACACACTACGCAGGGCTGCAAGTGTTAGCGGAGTCACCTAGTGCAG | 3350 fluorescence intensity (a.u.)
23 | ACATCCGAGAGACTAGGCCGACAAATCACCACCGACACGTCGGAGTCACCTAGTGCAG | 5890 fluorescence intensity (a.u.)
24 | TGCTACAAACCATGTGCAGGCATGCATGGATGACAGGCGGCGGAGTCACCTAGTGCAG | 3250 fluorescence intensity (a.u.)
25 | ATCCTTGCTTTGCTGCTGCGTTGTTCATGATTCCCACCAACGGAGTCACCTAGTGCAG | 3430 fluorescence intensity (a.u.)
26 | GAGGGAGGGAGGTGGAAGCGGAGGCGAGTGGGAGGGTGGGCGGAGTCACCTAGTGCAG | 6080 fluorescence intensity (a.u.)
27 | ATCCATGCATGCATCCTCCACGTAGCTAGCCCTATACTCTCGGAGTCACCTAGTGCAG | 3890 fluorescence intensity (a.u.)
28 | ATGGCGCGCCGCCACGTCACCCCGACTCGCCACGTCAGCACGGAGTCACCTAGTGCAG | 65500 fluorescence intensity (a.u.)
29 | GTTGCAAACCTGACCCCGGCATCGCCAGCCTGACCTGCTGCGGAGTCACCTAGTGCAG | 3240 fluorescence intensity (a.u.)
30 | TTTATATATATATATATATATATATATATGCCCATATGGTCGGAGTCACCTAGTGCAG | 24900 fluorescence intensity (a.u.)
31 | TGATCCAGTAATACTCTGACACGCCTAGCAGGATGTTAGGCGGAGTCACCTAGTGCAG | 3190 fluorescence intensity (a.u.)
32 | AAACCCGGAGAGAGTGGTGTTCGTGGACGTCACCCCATTTCGGAGTCACCTAGTGCAG | 4440 fluorescence intensity (a.u.)
33 | TTCCAAAACCTATGAAATTCCTATGGAATGACACATTGCACGGAGTCACCTAGTGCAG | 3300 fluorescence intensity (a.u.)
34 | TTGTAAGACGTGGATCTGTATGTCAACAATTGTCGTTTGTCGGAGTCACCTAGTGCAG | 6310 fluorescence intensity (a.u.)
35 | GTTGAGGATAGCTTTGCTGGGTCACTTCTGGACATAGGTCCGGAGTCACCTAGTGCAG | 3410 fluorescence intensity (a.u.)
36 | TCCTCCATAACAGTATCGCTACCCACGTTTGAGTGGTGCTCGGAGTCACCTAGTGCAG | 3410 fluorescence intensity (a.u.)
37 | AGTTGGCGTGGATGGCCACGATTCTGGACCCGGGGTTGCCCGGAGTCACCTAGTGCAG | 3600 fluorescence intensity (a.u.)
38 | TGCGCGATCCACAGGTAGTGGAGGGATTGGAGACACGTGTCGGAGTCACCTAGTGCAG | 5770 fluorescence intensity (a.u.)
39 | GACTACAGATCTGCAGCATGAAATCCAAGACGTAATGTGTCGGAGTCACCTAGTGCAG | 3430 fluorescence intensity (a.u.)
40 | AAGGGCCTACTTTCTCAAATTACCCCACGGGCATATTCACCGGAGTCACCTAGTGCAG | 33400 fluorescence intensity (a.u.)
41 | ACTCAGTACAGTCCAGAAAGATCACCGGTATAATTATACACGGAGTCACCTAGTGCAG | 3150 fluorescence intensity (a.u.)
42 | AGAAATAGGACGACGTCGATGACAGTGTCCAATCCCGGGACGGAGTCACCTAGTGCAG | 3790 fluorescence intensity (a.u.)

— PMC7819943, “Rice protein-binding microarrays: a tool to detect cis-acting elements near promoter regions in rice”
